Screening data, single-dose tests

Sequences of proteins named here, by UniProt entry; tags and fusion partners are left off. Residues count along the entry.
UniProt A4I591, 1-473: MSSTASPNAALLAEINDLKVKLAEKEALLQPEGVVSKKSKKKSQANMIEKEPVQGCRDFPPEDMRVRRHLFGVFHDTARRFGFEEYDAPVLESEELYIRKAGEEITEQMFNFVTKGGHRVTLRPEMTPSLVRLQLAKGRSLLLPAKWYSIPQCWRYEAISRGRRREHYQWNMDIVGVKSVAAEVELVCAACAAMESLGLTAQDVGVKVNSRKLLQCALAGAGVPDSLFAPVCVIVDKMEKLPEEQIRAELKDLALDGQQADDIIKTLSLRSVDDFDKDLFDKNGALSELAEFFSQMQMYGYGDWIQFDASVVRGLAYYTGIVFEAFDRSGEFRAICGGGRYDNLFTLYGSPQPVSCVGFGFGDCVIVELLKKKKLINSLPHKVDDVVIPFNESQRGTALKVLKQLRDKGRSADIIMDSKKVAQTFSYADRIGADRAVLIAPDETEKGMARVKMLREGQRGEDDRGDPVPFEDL
UniProt P9WFT3, whole entry: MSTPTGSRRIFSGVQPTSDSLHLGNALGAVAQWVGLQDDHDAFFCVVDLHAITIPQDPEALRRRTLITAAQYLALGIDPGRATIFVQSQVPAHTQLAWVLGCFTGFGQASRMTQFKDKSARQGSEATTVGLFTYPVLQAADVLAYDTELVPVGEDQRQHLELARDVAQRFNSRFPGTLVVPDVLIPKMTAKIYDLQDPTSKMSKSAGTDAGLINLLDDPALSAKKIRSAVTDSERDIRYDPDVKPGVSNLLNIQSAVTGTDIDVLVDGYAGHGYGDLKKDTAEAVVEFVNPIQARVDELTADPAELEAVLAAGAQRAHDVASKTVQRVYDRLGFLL

LiHisRS: 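Histidine-tRNA ligase, Leishmania infantum (UniProt A4I591). Enzyme assay of histidyl-tRNA synthetase; the read-out is not stated. Concentration: 30 µM. Higher reads as stronger inhibition (inferred: compounds with an IC50 in retests scored well above the rest). The assay is labelled LdHisRS but filed under L. infantum. About 69,000 compounds were tested under these conditions; 0.6% (about 410) showed 50% or more at least once.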
MtTrpRS: 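Enzyme assay of tryptophanyl-tRNA synthetase; the read-out is not stated. Target: Tryptophan-tRNA ligase, Mycobacterium tuberculosis (UniProt P9WFT3). Concentration: 10 µM. Direction is not recorded; retested compounds ran higher, which suggests that high means inhibition. Size under these conditions: about 65,000 compounds, about 64 of them at 50% or above in at least one test.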

Results are given as percent effect.
The controls that fix the scale are not given in the record; negative values are as filed.
The compounds are a random part of those screened.

Result for CC(=O)N1CCN(c2cc(N3CCOCC3)cnn2)CC1 was LiHisRS: 12.99%; MtTrpRS: -0.3708%. CC(C(=O)N1CCC(c2[nH]ncc2-c2ccccc2)CC1)n1cncn1 (configuration not stated) gave LiHisRS: 20%; MtTrpRS: 5.299%. Result for O=C(CCN1CCCC1)Nc1c2c(cc3c1CCC3)CCC2 was LiHisRS: -1.149%; MtTrpRS: 1.223%. With CCc1nc(CC)n(CC(=O)N(CC)CC)n1 the screen gave LiHisRS: -0.8929%; MtTrpRS: 0.3812%.

Result for CCCc1nc(CNc2cc(CS(C)(=O)=O)ccc2Cl)no1 was LiHisRS: 6.838%; MtTrpRS: -4.925%. For CC1CCN(CCNCc2cc(-c3ccccc3)cn3nnnc23)CC1 the result was LiHisRS: 1.053%; MtTrpRS: -7.014%. With Cc1ncc(CN(C)Cc2nc3cc(Cl)ccc3n2C)s1 the screen gave LiHisRS: 21.05%; MtTrpRS: 0.2101%. CC(C)NC(=O)N1Cc2nccn2CC(CN2CCCC2)C1 (configuration not stated) gave LiHisRS: 11.76%; MtTrpRS: -4.198%.

CCOc1ccc(C#N)cc1NCC(=O)OC read LiHisRS: 5.357%; MtTrpRS: -7.592%. For Cc1cccc(-c2nc(CN3CCc4cnc(C)nc4C3)no2)c1 the result was LiHisRS: 21.92%; MtTrpRS: 6.155%. Result for CC(Nc1c(F)cc(C#N)cc1F)c1cccc(S(N)(=O)=O)c1 (configuration not stated) was LiHisRS: 13.39%; MtTrpRS: 6.155%. CCOC(=O)N1CCCn2nc(C(=O)NCCN(C)C)cc2C1 gave LiHisRS: 8.065%; MtTrpRS: -1.347%.

COc1ccc(CN(C)[C@@H]2CN(C(=O)c3ccnn3C)C[C@H]2O)cc1 read LiHisRS: 5.208%. COc1ccccc1[C@@H]1CN(CC2CCC2)C[C@H]1C(=O)O gave LiHisRS: 9.091%; MtTrpRS: -0.09234%. For O=S(=O)(Cc1ccccc1)NCc1ccco1 the result was LiHisRS: 14.42%; MtTrpRS: -3.981%. O=C1[C@H]2CN(CC3CCOCC3)C[C@H]2CN1Cc1cccc(F)c1 read LiHisRS: 14.47%; MtTrpRS: -3.823%.

CCN(c1ccc(C(=O)Nc2c(C)nn(C(C)C)c2C)cc1)C(C)C gave LiHisRS: 16.13%; MtTrpRS: 2.694%. For CC(c1ccccc1)n1c(SCC(=O)O)nnc1-c1ccn[nH]1 (configuration not stated) the result was LiHisRS: -4.11%; MtTrpRS: 2.49%. With Cc1nc[nH]c1-c1nccn1CCN1CCCC1=O the screen gave LiHisRS: 7.143%; MtTrpRS: -0.144%. With O=C(c1cncc(N2CCC3(CCCNC3)C2)n1)N1CCCC1 (configuration not stated) the screen gave LiHisRS: 56.67%; MtTrpRS: -8.744%.

Clc1ccccc1-c1nc(CNCCn2cccn2)cs1 read LiHisRS: 29.6%; MtTrpRS: -19.65%. CS(=O)(=O)c1ccc(NC(=O)N2CCc3sccc3C2)cn1 read LiHisRS: 1.923%; MtTrpRS: 2.064%. Result for CCOc1ccc(Cl)cc1CCNC(=O)N1CCCC(CO)C1 (configuration not stated) was LiHisRS: 2.778%; MtTrpRS: -3.159%. For O=C(c1c[nH]nn1)N1CCN(C(c2ccccc2)C(F)(F)F)CC1 (configuration not stated) the result was LiHisRS: 11.61%; MtTrpRS: -4.701%.

With COc1ccc(S(=O)(=O)NCCC(O)c2ccccc2)c(C)c1 (configuration not stated) the screen gave LiHisRS: 12.17%; MtTrpRS: -6.611%. Result for Cc1ccc(-c2ncc(C(=O)NCCNC(=O)C3CC3)s2)c(C)c1 was LiHisRS: 11.4%; MtTrpRS: -4.237%. For CC(=O)N1Cc2nccn2CC(CNC(=O)c2cccnc2)C1 (configuration not stated) the result was LiHisRS: 3.419%; MtTrpRS: 1.26%. CN(C)S(=O)(=O)N1CCN(c2ccnc(N3CCCC3)n2)CC1 read LiHisRS: 5.714%; MtTrpRS: -1.42%.

CCN1CC2(CC1=O)CN(C(C)=O)CCN(S(=O)(=O)CC)C2 (configuration not stated) gave LiHisRS: 6.838%; MtTrpRS: -2.422%. CC(C)(C)OC(=O)N1CSC[C@@H]1C(=O)NCc1cccc(C#N)c1 read LiHisRS: 15.52%; MtTrpRS: 2.319%. With CC(Cc1cccs1)NC(=O)CCn1cccn1 (configuration not stated) the screen gave LiHisRS: 12.07%; MtTrpRS: -4.35%. For O=C1CC2(CCN(c3nncs3)C2)CN1c1cncnc1 (configuration not stated) the result was LiHisRS: -4.167%; MtTrpRS: -5.898%.

With O=C(CCOc1ccccc1F)N1CCC(O)CC1 the screen gave LiHisRS: 18.07%; MtTrpRS: -2.142%. With O=C(C1CCCC1)N1CC2(CCN(C3COC3)C2)Cc2ccccc21 (configuration not stated) the screen gave LiHisRS: 2.759%; MtTrpRS: -2.679%. With CCn1cc(NC(=O)CN2CCC(Oc3ccccc3C)CC2)c(C)n1 the screen gave LiHisRS: 13.42%; MtTrpRS: 3.268%. Cc1nnc(NCCC(=O)N(C)Cc2ccccc2)c(C#N)c1C gave LiHisRS: 20.72%; MtTrpRS: 0.3799%.

CCCN1CCC(c2nc3ccc(-c4ccncc4)cn3n2)CC1 gave LiHisRS: 17.82%. With O=C(CSCc1ccncc1)N(Cc1ccsc1)C1CC1 the screen gave LiHisRS: 23.68%; MtTrpRS: -3.43%. For CC1CCN(C(=O)[C@H]2C[C@@H]3CCN(CC4CCOCC4)C[C@H]3O2)CC1 the result was LiHisRS: 8%; MtTrpRS: -0.183%. For CCc1ccc(CN2CCCC(c3nn(C)c(=O)n3CC)C2)nc1 (configuration not stated) the result was LiHisRS: 8.197%; MtTrpRS: -1.495%.

The first 5 entries again:

* CC(=O)N1CCN(c2cc(N3CCOCC3)cnn2)CC1 | LiHisRS: 12.99%; MtTrpRS: -0.3708%
* CC(C(=O)N1CCC(c2[nH]ncc2-c2ccccc2)CC1)n1cncn1 (configuration not stated) | LiHisRS: 20%; MtTrpRS: 5.299%
* O=C(CCN1CCCC1)Nc1c2c(cc3c1CCC3)CCC2 | LiHisRS: -1.149%; MtTrpRS: 1.223%
* CCc1nc(CC)n(CC(=O)N(CC)CC)n1 | LiHisRS: -0.8929%; MtTrpRS: 0.3812%
* CCCc1nc(CNc2cc(CS(C)(=O)=O)ccc2Cl)no1 | LiHisRS: 6.838%; MtTrpRS: -4.925%

From ChEMBL document CHEMBL3988442, “University of Dundee, Small-Polar-MMV Screening Library” (2021).